Results from patent US20130023532A1, “INDAZOLYL-PYRIMIDINES AS KINASE INHIBITORS” (priority 2010, published 2013).
Some entries share one result that the patent states for a list of compounds.

By UniProt entry, the sequences of proteins in these tests, tags left out.
UniProt O43353, whole entry: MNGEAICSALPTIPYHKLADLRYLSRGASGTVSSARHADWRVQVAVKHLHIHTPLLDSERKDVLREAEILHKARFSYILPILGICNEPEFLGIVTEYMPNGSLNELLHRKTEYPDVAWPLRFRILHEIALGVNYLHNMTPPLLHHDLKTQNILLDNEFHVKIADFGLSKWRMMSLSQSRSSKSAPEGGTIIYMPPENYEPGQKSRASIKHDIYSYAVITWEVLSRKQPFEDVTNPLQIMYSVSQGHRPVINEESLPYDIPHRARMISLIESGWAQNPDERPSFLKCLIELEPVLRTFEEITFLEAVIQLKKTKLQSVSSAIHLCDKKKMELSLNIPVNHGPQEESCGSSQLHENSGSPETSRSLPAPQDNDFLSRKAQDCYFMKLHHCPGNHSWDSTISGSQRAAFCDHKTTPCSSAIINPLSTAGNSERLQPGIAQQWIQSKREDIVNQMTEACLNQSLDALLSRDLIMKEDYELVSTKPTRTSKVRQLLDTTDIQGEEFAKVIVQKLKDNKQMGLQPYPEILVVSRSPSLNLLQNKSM

Target: T1, RIPK2 (Homo sapiens, UniProt O43353)
T1 construct: Full length FLAG His tagged RIPK2 was purified from a Baculovirus expression system; FLAG (N); 6His (N); made in house; host or cells: Spodoptera frugiperda (Sf9) insect cells, baculovirus
Experiment: Fluorescent polarization based binding assay at the ATP binding pocket of RIPK2
Conditions: FP competition with fluorescently labeled ATP competitive ligand (5 nM); full length FLAG His tagged RIPK2; mean of a minimum of 2 experiments
Text: A fluorescent polarization based binding assay was developed to quantitate interaction of novel test compounds at the ATP binding pocket of RIPK2, by competition with a fluorescently labeled ATP competitive ligand. Full length FLAG His tagged RIPK2 was purified from a Baculovirus expression system and was used at a final assay concentration of twice the KDapparent. A fluorescent labeled ligand (5-({[2-({[3-({4-[(5-hydroxy-2-methylphenyl)amino]-2-pyrimidinyl}amino)phenyl]carbonyl}amino)ethyl]amino}carbonyl)-2-(6-hydroxy-3-oxo-3H-xanthen-9-yl)benzoic acid, prepared as described below) was used at a final assay concentration of 5 nM. Both the enzyme and ligand were prepared in solutions in 50 mM HEPES pH7.5, 150 mM NaCl, 10 mM MgCl2, 1 mM DTT, and 1 mM CHAPS. Test compounds were prepared in 100% DMSO and 100 nL was dispensed to individual wells of a multiwell plate. Next, 5 ul RIPK2 was added to the test compounds at twice the final assay concentration, and incubated at room temperature for 10 minutes. Following the incubation, 5 ul of the fluorescent labeled ligand solution, was added to each reaction, at twice the final assay concentration, and incubated at room temperature for at least 10 minutes. Finally, samples were read on an instrument capable of measuring fluorescent polarization. Test compound inhibition was expressed as percent (%) inhibition of internal assay controls.
For concentration response experiments, normalized data were fit and pIC50 s determined using conventional techniques. For example, the following four parameter logistic equation may be used: y=A+((B−C))/(1+(10^x)/(10^C)^D), where: y is the % activity (% inhibition) at a specified compound concentration; A is the minimum % activity; B is the maximum % activity; C=log10(IC50); D=Hill slope; x=log10 (compound concentration [M]); and pIC50=(—C).
The pIC50s are averaged to determine a mean value, for a minimum of 2 experiments.
Full-length human RIPK2 (receptor-interacting serine-threonine kinase 2) cDNA was purchased from Invitrogen (Carlsbad, Calif., USA, Clone ID:IOH6368, RIPK2-pENTR 221). Gateway® LR cloning was used to site-specifically recombine RIPK2 downstream to an N-terminal FLAG-6His contained within the destination vector pDEST8-FLAG-His6 according to the protocol described by Invitrogen. Transfection into Spodoptera frugiperda(Sf9) insect cells was performed using Cellfectin® (Invitrogen), according to the manufacturer's protocol.

SMILES | mean pIC50
COc1cc(Nc2nccc(N(C)c3n[nH]c4ccc(F)cc34)n2)cc(OC)c1OC [Example 1, N4-(5-Fluoro-1H-indazol-3-yl)-N4-methyl-N2-[3,4,5-tris(methyloxy)phenyl]-2,4-pyrimidinediamine] | greater than or equal to 6.0
COc1ccc(Nc2nccc(Nc3n[nH]c4ncccc34)n2)cc1OC [Example 2, N^2-[3,4-Bis(methyloxy)phenyl]-N^4-1H-pyrazolo[3,4-b]pyridin-3-yl-2,4-pyrimidinediamine] | greater than or equal to 6.0
CN(C)S(=O)(=O)c1cccc(Nc2nccc(Nc3n[nH]c4ccc(F)cc34)n2)c1 [Example 3, 3-({4-[(5-Fluoro-1H-indazol-3-yl)amino]-2-pyrimidinyl}amino)-N,N-dimethyl-benzenesulfonamide] | greater than or equal to 6.0
COc1cc(Nc2nccc(Nc3n[nH]c4ccc(F)cc34)n2)cc(S(C)(=O)=O)c1 [Example 4, N4-(5-Fluoro-1H-indazol-3-yl)-N2-[3-(methoxy)-5-(methylsulfonyl)phenyl]-2,4-pyrimidinediamine] | greater than or equal to 6.0
COc1cc(Nc2nccc(N(C)c3n[nH]c4ncc(F)cc34)n2)cc(S(C)(=O)=O)c1 [Example 6, N4-(5-fluoro-1H-pyrazolo[3,4-b]pyridin-3-yl)-N4-methyl-N2-[3-(methyloxy)-5-(methylsulfonyl)phenyl]-2,4-pyrimidinediamine] | greater than or equal to 6.0
O=S1(=O)C=Cc2c(Nc3nccc(Nc4n[nH]c5ccc(F)cc45)n3)cccc21 [Example 8, N2-(1,1-dioxido-1-benzothien-4-yl)-N4-(5-fluoro-1H-indazol-3-yl)-2,4-pyrimidinediamine] | greater than or equal to 6.0
Cc1cc(Nc2nccc(N(C)c3n[nH]c4cc(C)c(F)cc34)n2)cc(S(N)(=O)=O)c1 [Example 9, 3-((4-((5-fluoro-6-methyl-1H-indazol-3-yl)(methyl)amino)pyrimidin-2-yl)amino)-5-methylbenzenesulfonamide] | greater than or equal to 6.0
Cc1cc(S(C)(=O)=O)cc(Nc2nccc(Nc3n[nH]c4ccc(F)cc34)n2)c1C [Example 10, N2-[2,3-dimethyl-5-(methylsulfonyl)phenyl]-N4-(5-fluoro-1H-indazol-3-yl)-2,4-pyrimidinediamine] | greater than or equal to 6.0
[O-][S+](CCO)c1cccc(Nc2nccc(Nc3n[nH]c4ccc(F)cc34)n2)c1 (stereo not drawn) [Example 11, 2-{[3-({4-[(5-fluoro-1H-indazol-3-yl)amino]-2-pyrimidinyl}amino)phenyl]sulfinyl}ethanol] | greater than or equal to 6.0
COc1ccc2[nH]nc(Nc3ccnc(Nc4cc(OC)c(OC)c(OC)c4)n3)c2c1 [Example 12, N^4-[5-(methyloxy)-1H-indazol-3-yl]-N^2-[3,4,5-tris(methyloxy)phenyl]-2,4-pyrimidinediamine] | greater than or equal to 6.0
COc1ccc(Nc2nccc(Nc3n[nH]c4ccc(Cl)cc34)n2)cc1OC.O=C(O)C(F)(F)F [Example 14, N^2-[3,4-bis(methyloxy)phenyl]-N^4-(5-chloro-1H-indazol-3-yl)-2,4-pyrimidinediamine trifluoroacetate] | greater than or equal to 6.0
COc1ccc2[nH]nc(Nc3ccnc(Nc4ccc(OC)c(OC)c4)n3)c2c1 [Example 15, N^2-[3,4-bis(methyloxy)phenyl]-N^4-[5-(methyloxy)-1H-indazol-3-yl]-2,4-pyrimidinediamine] | greater than or equal to 6.0
COc1ccc(Nc2nccc(Nc3n[nH]c4c(F)cccc34)n2)cc1OC.O=C(O)C(F)(F)F [Example 16, N^2-[3,4-bis(methyloxy)phenyl]-N^4-(7-fluoro-1H-indazol-3-yl)-2,4-pyrimidinediamine trifluoroacetate] | greater than or equal to 6.0
COc1ccc(Nc2nccc(Nc3n[nH]c4cccc(F)c34)n2)cc1OC.O=C(O)C(F)(F)F [Example 18, N^2-[3,4-bis(methyloxy)phenyl]-N^4-(4-fluoro-1H-indazol-3-yl)-2,4-pyrimidinediamine trifluoroacetate] | greater than or equal to 6.0
COc1ccc2c(Nc3ccnc(Nc4ccc(OC)c(OC)c4)n3)n[nH]c2c1.O=C(O)C(F)(F)F [Example 19, N^2-[3,4-bis(methyloxy)phenyl]-N^4-[6-(methyloxy)-1H-indazol-3-yl]-2,4-pyrimidinediamine trifluoroacetate] | greater than or equal to 6.0
COc1ccc(Nc2nccc(Nc3n[nH]c4ccc(Cl)c(Cl)c34)n2)cc1OC.O=C(O)C(F)(F)F [Example 20, N^2-[3,4-bis(methyloxy)phenyl]-N^4-(4,5-dichloro-1H-indazol-3-yl)-2,4-pyrimidinediamine trifluoroacetate] | greater than or equal to 6.0
COc1ccc(Nc2nccc(Nc3nn(C)c4cc(Cl)ccc34)n2)cc1OC [Example 21, N^2-[3,4-bis(methyloxy)phenyl]-N^4-(6-chloro-1-methyl-1H-indazol-3-yl)-2,4-pyrimidinediamine] | greater than or equal to 6.0
COc1ccc(Nc2nccc(Nc3n[nH]c4ccc(F)cc34)n2)cc1OC.O=C(O)C(F)(F)F [Example 23, N^2-[3,4-bis(methyloxy)phenyl]-N^4-(5-fluoro-1H-indazol-3-yl)-2,4-pyrimidinediamine trifluoroacetate] | greater than or equal to 6.0
COc1ccc(Nc2nccc(Nc3n[nH]c4c(F)cc(F)cc34)n2)cc1OC.O=C(O)C(F)(F)F [Example 24, N^2-[3,4-bis(methyloxy)phenyl]-N^4-(5,7-difluoro-1H-indazol-3-yl)-2,4-pyrimidinediamine trifluoroacetate] | greater than or equal to 6.0
COc1ccc(Nc2nccc(Nc3n[nH]c4c(F)c(F)ccc34)n2)cc1OC.O=C(O)C(F)(F)F [Example 25, N^2-[3,4-bis(methyloxy)phenyl]-N^4-(6,7-difluoro-1H-indazol-3-yl)-2,4-pyrimidinediamine trifluoroacetate] | greater than or equal to 6.0
O=C(O)C(F)(F)F.O=S(=O)(c1cccc(Nc2nccc(Nc3n[nH]c4ccc(F)cc34)n2)c1)N1CCCC1 [Example 26, N^4-(5-fluoro-1H-indazol-3-yl)-N^2-[3-(1-pyrrolidinylsulfonyl)phenyl]-2,4-pyrimidinediamine trifluoroacetate] | greater than or equal to 6.0
COc1ccc2[nH]nc(Nc3ccnc(Nc4ccc(F)c(S(C)(=O)=O)c4)n3)c2c1.O=C(O)C(F)(F)F [Example 27, N^2-[4-fluoro-3-(methylsulfonyl)phenyl]-N^4-[5-(methyloxy)-1H-indazol-3-yl]-2,4-pyrimidinediamine trifluoroacetate] | greater than or equal to 6.0
CS(=O)(=O)c1cc(Nc2nccc(Nc3n[nH]c4ccc(F)cc34)n2)ccc1F.O=C(O)C(F)(F)F [Example 28, N^4-(5-fluoro-1H-indazol-3-yl)-N^2-[4-fluoro-3-(methylsulfonyl)phenyl]-2,4-pyrimidinediamine trifluoroacetate] | greater than or equal to 6.0
COc1cc(Nc2nccc(N(C)c3n[nH]c4ccc(F)cc34)n2)cc(OC)c1OC.O=C(O)C(F)(F)F [Example 29, N^4-(5-fluoro-1H-indazol-3-yl)-N^4-methyl-N^2-[3,4,5-tris(methyloxy)phenyl]-2,4-pyrimidinediamine trifluoroacetate] | greater than or equal to 6.0
CN(c1ccnc(Nc2cccc(S(C)(=O)=O)c2)n1)c1n[nH]c2ccc(F)cc12.O=C(O)C(F)(F)F [Example 30, N^4-(5-fluoro-1H-indazol-3-yl)-N^4-methyl-N^2-[3-(methylsulfonyl)phenyl]-2,4-pyrimidinediamine trifluoroacetate] | greater than or equal to 6.0
COc1ccc2c(c1)c(Nc1ccnc(Nc3ccc(OC)c(OC)c3)n1)nn2C.O=C(O)C(F)(F)F [Example 31, N2-[3,4-bis(methyloxy)phenyl]-N4-[1-methyl-5-(methyloxy)-1H-indazol-3-yl]-2,4-pyrimidinediamine trifluoroacetate] | greater than or equal to 6.0
COc1ccc2[nH]nc(Nc3ccnc(Nc4ccc(F)c(OC)c4)n3)c2c1 [Example 33, N^2-[4-fluoro-3-(methyloxy)phenyl]-N^4-[5-(methyloxy)-1H-indazol-3-yl]-2,4-pyrimidinediamine] | greater than or equal to 6.0
